The structures appear in SMILES notation. This is one part of the list.

A short description of this experiment: inhibitors of TNFa-induced NFkB p65 translocation, primary screen, imaging, HUVEC, MLSMR starter and 10KST1 sets (AID 438).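 Also: compound added about 3h40 before a 20 min TNFalpha stimulation.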 The note with it: HUVEC TNFa-induced p65 nuclear translocation, measured here: nuclei count (cytotoxicity indicator), at 2.08 µM.
`Fc1ccccc1NC1CCN(Cc2ccccc2)CC1` yielded a cell count of 286.
